In patent US5789542A (Board of Supervisors of Louisiana State University and …, priority 1997, dated 1998) one finds isolated yield data, which are given here for one substance.

HELM strings list residues between dots; [ac] is acetyl, [am] amide, other brackets name non-standard units.

The data set can be described thus: solution-phase peptide synthesis; PAL-PS (peptide-amide linker polystyrene) for (KLAKLAK)3 and (KFAKFAK)3; polyethyleneglycol-polyamide linker on polystyr; pentafluorophenyl esters with HOBT in DMF. To be noted: whole synthesis, overall.

As for “PEPTIDE1{K.L.A.K.K.L.A.K.L.A.K.K.L.A.[OMe]}$$$$V2.0”, the isolated yield entry is given as “approximately 5%”.
